These results are taken from PMC12775136.

These are yes or no findings as the source states them, for the method shown. Sequences can lack the tags named with a protein.

In this assay the target is T1, GST-3′hExofl (human) (UniProt Q8IV48).
T1 sequence: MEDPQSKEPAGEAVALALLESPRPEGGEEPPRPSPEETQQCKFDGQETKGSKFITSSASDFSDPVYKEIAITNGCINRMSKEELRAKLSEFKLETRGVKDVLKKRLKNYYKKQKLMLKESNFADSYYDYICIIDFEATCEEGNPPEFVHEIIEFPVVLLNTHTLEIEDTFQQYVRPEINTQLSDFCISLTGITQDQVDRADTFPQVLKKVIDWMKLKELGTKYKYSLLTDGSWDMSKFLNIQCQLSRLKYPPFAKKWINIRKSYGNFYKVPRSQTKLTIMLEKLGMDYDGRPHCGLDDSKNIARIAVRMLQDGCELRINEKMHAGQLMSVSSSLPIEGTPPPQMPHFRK
The assay can be described thus: pull-down; GST pull-down: 8 µg GST-tagged bait with 8 µg prey, 1 h, 25 °C, 20 mM HEPES pH 7.5, 70 mM NaCl, 0.1% NP-40, 10% glycerol; eluted with glutathione; SDS-PAGE, Coomassie; both purified.

As to “UPF2-MIF4G1-2 (human) (domain or fragment)”, the binding result is “no binding (tested: 8 µg prey with 8 µg GST-tagged bait)”.
